PubChem BioAssay AID652272, Drosophila RNAi Screening Center, 2013
Aim: 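Genome-wide knock-down search for components of Hedgehog signalling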 (primary screen). Cells: Drosophila clone 8 (Cl8) cells. Reagents: long dsRNA against Drosophila genes. Measured: 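Firefly light from a Hedgehog-responsive ptc promoter reporter and Renilla reference light, both read on a plate reader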. Scale: firefly Hh reporter signal: higher = more ptc reporter light; Renilla reference signal: higher = more Renilla control light. Rule for the call: 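Hit when the z-score averaged over two replicates is under -2 or over +3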. Calls: active = hit: reporter lowered or raised; inactive = not a hit.
The screen tested about 21,000 reagents; this is an unselected part of those that have a named target and a result. Over the whole deposit, 503 (2.4%) were called active. 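Raw plate light values, not normalised; calls rest on replicate z-scores that were not deposited; hits include reporter decreases as well as increases.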 Unmarked entries are inactive. A plus sign joins genes that one reagent is predicted to hit. Not given: the amount of reagent, the time to read-out.

| predicted target | amplicon | firefly Hh reporter signal, replicate 1 | firefly Hh reporter signal, replicate 2 | firefly Hh reporter signal, replicate 3 | Renilla reference signal, replicate 1 | Renilla reference signal, replicate 2 |
| --- | --- | --- | --- | --- | --- | --- |
| Fak (Focal adhesion kinase) | DRSC07426 | 88685 | 49350 | – | 1826 | 3793 |
| CG1607 | DRSC15130 | 82048 | 72771 | – | 2262 | 2146 |
| FoxL1 (Forkhead box L1) | DRSC08717 | 79868 | 50740 | – | 2372 | 4796 |
| CG15611 | DRSC06563 | 1.02e5 | 1.17e5 | – | 4640 | 4381 |
| CG15611 | DRSC06564 | 84762 | 35592 | – | 2554 | 2720 |
| CG13841 | DRSC14691 | 38651 | 3.29e5 | – | 1707 | 20672 |
| Loxl1 (Lysyl oxidase-like 1) | DRSC14303 | 70988 | 3.21e5 | – | 1147 | 10982 |
| CG17261 | DRSC00498 | 1.57e5 | 54487 | – | 3765 | 6480 |
| Acp63F (Accessory gland protein 63F) | DRSC08137 | 83061 | 51296 | – | 2497 | 3597 |
| SMC3 (Structural maintenance of chromosomes 3) | DRSC20227 | 1.03e5 | 2.29e5 | – | 3273 | 6903 |
| CG8026 | DRSC07055 | 99233 | 74695 | – | 3974 | 2512 |
| CG8026 | DRSC07056 | 92646 | 54016 | – | 1699 | 4099 |
| CG17919 | DRSC12571 | 1.06e5 | 68400 | – | 4256 | 2442 |
| CG12499 | DRSC14521 | 2.60e5 | 1.71e5 | – | 17944 | 395 |
| CG8562 | DRSC10995 | 39136 | 42426 | – | 6529 | 3429 |
| CG9313 | DRSC04540 | 1.41e5 | 1.13e5 | – | 5627 | 4086 |
| CG10651 | DRSC02086 | 85249 | 40397 | – | 2493 | 3783 |
| VhaAC45 (Vacuolar H[+] ATPase AC45 accessory subunit) | DRSC07058 | 62859 | 61805 | – | 2502 | 1900 |
| TwdlX (TweedleX) | DRSC19151 | 5.24e5 | 2.53e5 | – | 29984 | 6160 |
| CG3420 | DRSC04995 | 1.17e5 | 79212 | – | 3046 | 4005 |
| RhoGAPp190 (Rho GTPase activating protein p190) | DRSC20097 | 93283 | 2.69e5 | – | 1895 | 10201 |
| RhoGAPp190 (Rho GTPase activating protein p190) | DRSC20099 | 99633 | 1.22e5 | – | 2450 | 2800 |
| CG13561 | DRSC04199 | 1.01e5 | 79684 | – | 2598 | 7581 |
| RhoGAP5A (Rho GTPase activating protein at 5A) | DRSC18294 | 1.13e5 | 84699 | – | 2682 | 2180 |
| CG15539 | DRSC15075 | 89511 | 93283 | – | 3907 | 2032 |
| Gmppa (GDP-mannose pyrophosphorylase A) | DRSC07108 | 1.11e5 | 32085 | – | 2931 | 1584 |
| Ir94e (Ionotropic receptor 94e) | DRSC15229 | 8.34e5 | 6.35e5 | 1.64e5 | 44497 | 5874 |
| His4:CG33883 + His4:CG33889 + His4:CG33899 + 20 more | DRSC21268 | 33301 | 69181 | – | 729 | 3206 |
| CG32681 | DRSC17646 | 5.98e5 | 2.86e5 | – | 33379 | 6054 |
| Brd7-9 (Bromodomain containing 7/9) | DRSC03017 | 77752 | 81954 | – | 4072 | 4059 |
| CG9294 | DRSC04537 | 74976 | 41680 | – | 2336 | 4197 |
| PIG-Wa (Phosphatidylinositol glycan anchor biosynthesis class W a) | DRSC00728 | 94171 | 1.20e5 | – | 2371 | 3088 |
| Cngl (Cyclic nucleotide-gated ion channel-like) | DRSC19089 | 8.40e5 | 2.80e5 | – | 44832 | 6589 |
| Cngl (Cyclic nucleotide-gated ion channel-like) | DRSC19795 | 1.22e5 | 81212 | – | 2880 | 1747 |
| Cngl (Cyclic nucleotide-gated ion channel-like) | DRSC20318 | 1.46e5 (active) | 66855 | – | 9364 | 2992 |
| Orp8 (Oxysterol-binding protein-related protein 8) | DRSC15110 | 6.25e5 | 5.77e5 | 1.14e5 | 39202 | 3414 |
| Orp8 (Oxysterol-binding protein-related protein 8) | DRSC15712 | 1.20e5 | 69514 | – | 5189 | 3040 |
| Parp16 (Poly(ADP-ribose) polymerase 16) | DRSC06597 | 1.04e5 | 51160 | – | 2688 | 3704 |
| CG12395 | DRSC19453 | 82055 | 2.26e5 | – | 2096 | 9144 |
| CG14182 | DRSC10181 | 97578 | 93801 | – | 3467 | 2727 |
| Cyp6a17 (Cytochrome P450 6a17) | DRSC07378 | 1.39e5 | 81510 | – | 5545 | 2266 |
| CG11858 | DRSC14412 | 6.69e5 | 1.33e5 | – | 35869 | 4012 |
| CG43367 | DRSC08299 | 81008 | 54899 | – | 2340 | 3917 |
| CG43367 | DRSC08301 | 78352 | 41605 | – | 2395 | 3067 |
| CG43367 | DRSC08309 | 93744 | 34544 | – | 2833 | 263 |
| nbs | DRSC11373 | 21600 | 43229 | 50839 | 4802 | 3414 |
| CG31128 | DRSC13675 | 51637 | 3.19e5 | – | 14032 | 7621 |
| CG34241 | DRSC09157 | 1.89e5 | 3.03e5 | – | 4880 | 11364 |
| Adk3 (Adenosine kinase 3) | DRSC05917 | 1.33e5 | 97676 | – | 5440 | 3707 |
| CG14459 | DRSC11719 | 15942 (active) | 13549 | – | 1424 | 448 |
| CG33771 | DRSC11718 | 5.20e5 | 99952 | – | 4224 | 4224 |
| Pstk + CG14210 + Tim9b | DRSC19566 | 38457 (active) | 1.09e5 | – | 2165 | 9218 |
| kuz (kuzbanian) | DRSC03555 | 81848 | 45128 | – | 2103 | 3660 |
| CG4291 | DRSC00650 | 1.08e5 | 69590 | – | 4748 | 3329 |
| CG9896 | DRSC03962 | 1.45e5 | 2.38e5 | – | 4112 | 10998 |
| CG9896 | DRSC04594 | 85434 | 70454 | – | 1926 | 7265 |
| mRpL10 (mitochondrial ribosomal protein L10) | DRSC00312 | 1.47e5 | 65979 | – | 4720 | 2513 |

Reprinted from the entries so far for reference:
| predicted target | amplicon | firefly Hh reporter signal, replicate 1 | firefly Hh reporter signal, replicate 2 | firefly Hh reporter signal, replicate 3 | Renilla reference signal, replicate 1 | Renilla reference signal, replicate 2 |
| --- | --- | --- | --- | --- | --- | --- |
| SMC3 (Structural maintenance of chromosomes 3) | DRSC20227 | 1.03e5 | 2.29e5 | – | 3273 | 6903 |
| CG8026 | DRSC07055 | 99233 | 74695 | – | 3974 | 2512 |
| CG8026 | DRSC07056 | 92646 | 54016 | – | 1699 | 4099 |
| CG17919 | DRSC12571 | 1.06e5 | 68400 | – | 4256 | 2442 |
| CG12499 | DRSC14521 | 2.60e5 | 1.71e5 | – | 17944 | 395 |
| CG8562 | DRSC10995 | 39136 | 42426 | – | 6529 | 3429 |
| CG9313 | DRSC04540 | 1.41e5 | 1.13e5 | – | 5627 | 4086 |
